# Experimental data from PubChem BioAssay AID493014 (National Center for Advancing Translational Sciences (NCATS), 2011).
# The other results are listed elsewhere or left out. The main result of the screen is listed elsewhere. These columns were measured beside it and carry no call. Most of these compounds were active or inconclusive in the main read-out, so they are no random draw. Words in brackets tell the shape of the fitted curve; partial curves, single points and poor fits give uncertain potencies.
# Assay: qHTS Assay to Find Inhibitors of Chronic Active B-Cell Receptor Signaling
# Details: ABC-DLBCL IkBa-CBG/CBR reporter, luminescence ratio (green luciferase fused to IkBa over red control in TMD8 lymphoma cells), 4 h
# Summary of the method: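 Concentration-response series (up to 46 uM) were applied to TMD8 dual-reporter cells for 4 h at 37C with doxycycline. Green/red ratio, after filter-overlap correction, defined %Activity; red signal alone was normalised to basal cells and zero luminescence.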
# [1] = measured here: CBR red luminescence, cell number
# [2] = measured here: IkBa-CBG green luminescence
Compound,AC50 [1],AC50 [2]
COc1ccc(CNc2ncc(-c3ccccc3)n2C)c2ccccc12,"20 µM [falling, partial curve, poor fit]",–
COC(=O)c1ccc(-c2ccc(F)cc2)nc1C,"13 µM [rising, partial curve, poor fit]",–
CCCCn1nc(C(=O)Nc2cc(C(F)(F)F)ccc2N2CCOCC2)ccc1=O,"29.1 µM [falling, single point]",–
CCOc1ccccc1N/C(=C(/C(Cl)=C(Cl)Cl)[N+](=O)[O-])n1cncn1,"13 µM [falling, partial curve, poor fit]",–
CCN(CC)S(=O)(=O)c1ccc(NC=C(C#N)C#N)cc1,"3.16 µM [falling, single point]",–
CC(C)(C)c1ccc(/C=C/C(=O)c2ccc(NC3=NCCCS3)cc2)cc1,"14.6 µM [falling, partial curve]",–
COCC(C)N=Cc1c(O)[nH]c2ccccc12 (configuration not stated),"29.1 µM [falling, single point]",–
CCN(CC(=O)Nc1ccc(NC(C)=O)cc1)C(=O)c1c(-c2c(F)cccc2Cl)noc1C,"11.2 µM [falling, partial curve, poor fit]",–
COc1ccc(/C=C/C(=O)NC(=S)NN2CCCCC2c2cccnc2)cc1 (configuration not stated),"3.98 µM [rising, single point]",–
CCCCN(CC)C(=O)CSc1nc2n[nH]c(C)c2c(=N)n1-c1cccc(Cl)c1,"20 µM [falling, single point]",–
O=C(O)c1cc(=O)c2ccccc2o1,"35.5 µM [rising, single point]",–
O=C(Cc1ccc([N+](=O)[O-])cc1)Nc1ccc(Br)cn1,"5.62 µM [rising, single point]",–
O=C(O)C1C2CCC(O2)C1C(=O)Nc1cnn(Cc2ccccc2)c1 (configuration not stated),"16.4 µM [rising, single point]",–
C=CCSc1nnc2c(n1)[nH]c1c(C)cccc12,"7.94 µM [falling, partial curve]",–
CCOc1ccc(-c2cc(CCCC(=O)Nc3cc(OC)ccc3OC)no2)cc1,"2 µM [falling, full curve, poor fit]",–
CCOP(=O)(OCC)/C(C#N)=C/c1c[nH]c2ccccc12,"15.8 µM [falling, single point]",–
CCN(CC)CCNC(=O)C1c2ccccc2C(=O)N(CCOC)C1c1ccc(F)cc1 (configuration not stated),"7.31 µM [falling, partial curve, poor fit]",–
COc1cccc(C(=O)NCC(c2cccs2)N2CCc3ccccc32)c1 (configuration not stated),"29.1 µM [falling, partial curve, poor fit]",–
O=C(NCCc1csc(-c2ccccc2)n1)c1c(F)cccc1Cl,"3.16 µM [rising, partial curve]",–
Cc1ccc(-c2nn3c(C)nnc3c3ccccc23)cc1S(=O)(=O)NCCN1CCOCC1,"35.5 µM [rising, single point]",–
CCSc1nnc(NC(=O)c2cccs2)s1,"6.31 µM [falling, partial curve, poor fit]",–
CCOC(=O)C1CCN(Cc2cnc(Oc3ccc(N)cc3)s2)CC1,"11.6 µM [rising, partial curve, poor fit]",–

# Single values from above.
# `CCOC(=O)C1CCN(Cc2cnc(Oc3ccc(N)cc3)s2)CC1` | AC50 [1]: 11.6 µM [rising, partial curve, poor fit]
# `O=C(O)C1C2CCC(O2)C1C(=O)Nc1cnn(Cc2ccccc2)c1` (configuration not stated) | AC50 [1]: 16.4 µM [rising, single point]

# (next part)

Compound,AC50 [1],AC50 [2]
O=C(Nc1ccc(Br)cc1Cl)NC1CC1,"3.98 µM [rising, single point]",–
CCOc1ccc2[nH]c(=O)c(C(c3nnnn3Cc3ccco3)N3CCN(C)CC3)cc2c1 (configuration not stated),"1 µM [falling, full curve]","6.31 µM [rising, full curve, poor fit]"
COc1ccc(CCC(=O)NCCc2ccc(OC)c(OC)c2)cc1,"5.01 µM [rising, single point]",–
COc1ccc(/C=N/NC(=O)c2cnccn2)cc1O,"20.6 µM [falling, single point]",–
Cc1cc2[nH]c3ccccc3c2cn1,"20 µM [falling, partial curve, poor fit]",–
CC(C)c1nc(N2CCN(C(=O)c3ccco3)CC2)c2c3c(sc2n1)CCCC3,"29.1 µM [falling, single point]",–
COc1cc(/C=N/N=C(N)N)ccc1OCc1ccccc1Cl,"25.1 µM [falling, single point]",–
Cc1cc(C)nc(N/N=C/c2ccccc2OCC(=O)O)n1,"15.8 µM [falling, partial curve, poor fit]",–
Cc1csc(NC(=O)c2ccc(N3CCCC3=O)cc2)n1,"2.82 µM [falling, partial curve, poor fit]",–
CCOc1ccccc1N(C(=O)c1snc(C(N)=O)c1N)C(C(=O)NCCC(C)C)c1ccco1 (configuration not stated),"15.8 µM [falling, single point]",–
CC(C)(C)c1ccc(OCCCC(=O)Nc2cccc(S(=O)(=O)N3CCOCC3)c2)cc1,"23.1 µM [falling, single point]",–
Clc1ccc(-c2nnc(NCc3ccccc3)c3ccccc23)cc1,"1.46 µM [rising, full curve, poor fit]",–
CCn1nccc1C(=O)Nc1nc2ccccc2n1CCN1CCCCC1,"35.5 µM [falling, single point]",–
CC(C)(C)OC(=O)[C@H](Cc1ccccc1)NC(=O)c1[nH]cnc1C(=O)Nc1cccc(Cl)c1,"31.6 µM [rising, single point]",–
O=C(Nc1ccc(Cc2ccncc2)cc1)C1CCC(N2C(=O)C3CCCCC3C2=O)CC1 (configuration not stated),"15.8 µM [rising, partial curve, poor fit]",–
O=C(CCC1CCCC1)N1CCN(C2CCCC2)CC1,"0.13 µM [falling, full curve, poor fit]",–
O/N=C\c1ccc(-c2ccccc2)o1,"0.058 µM [rising, full curve, poor fit]",–
O=C(Nc1ccc(F)cc1)C(c1ccccc1)N1CCN(S(=O)(=O)c2c(F)cccc2F)CC1 (configuration not stated),"23.1 µM [rising, partial curve, poor fit]",–
CC(C)COCC(CN(Cc1ccccc1)c1ccccc1)N1CCCC1 (configuration not stated),"35.5 µM [falling, single point]",–
Oc1ccccc1N1CCN(c2ncccn2)CC1,"0.58 µM [rising, full curve]",–
O=C(Oc1ccc(Cl)c2cccnc12)C12CC3CC(CC(C3)C1)C2,–,"4.61 µM [falling, full curve]"
Cc1ccccc1OC(C)C(=O)NC1CCCC1 (configuration not stated),"6.51 µM [rising, partial curve, poor fit]",–

# Some of the entries so far, bar-delimited:
Compound | AC50 [1] | AC50 [2]
COc1ccc(CCC(=O)NCCc2ccc(OC)c(OC)c2)cc1 | 5.01 µM [rising, single point] | –
COc1ccc(/C=N/NC(=O)c2cnccn2)cc1O | 20.6 µM [falling, single point] | –
Cc1cc2[nH]c3ccccc3c2cn1 | 20 µM [falling, partial curve, poor fit] | –

# Following part

Compound,AC50 [1],AC50 [2]
N=c1n(CCN2CCOCC2)c2ccccc2n1CC(=O)c1ccc(Cl)c(Cl)c1,"4.47 µM [falling, partial curve, poor fit]",–
O=C(Nc1cc(S(=O)(=O)N2CCOCC2)ccc1N1CCOCC1)c1ccccc1[N+](=O)[O-],"13 µM [rising, single point]",–
O=C(c1cc(-c2ccc(F)cc2)on1)N1CCCC1,"7.08 µM [falling, partial curve]",–
CSc1ccccc1NC(=O)Nc1cccc(Cl)c1Cl,"2.59 µM [falling, full curve]",–
COc1ccc2c(CC(=O)NCc3ccc4c(c3)OCO4)coc2c1,"2.59 µM [falling, full curve]",–
COC(=O)[C@@H](CC(C)C)NS(=O)(=O)N(Cc1ccccc1)[C@@H](CC(C)C)C(=O)OC,"23.1 µM [falling, single point]",–
C/C(=N/NC(=O)c1cccs1)c1cccc(N)c1,"20 µM [falling, partial curve]",–
COc1cc(OC)c(-c2cc(C(=O)O)ccc2OC)c(OC)c1,"18.4 µM [rising, partial curve, poor fit]",–
Cc1ccc(SCC(=O)c2c(C)[nH]c3ccccc23)cc1,"0.58 µM [rising, partial curve]",–
Cc1ccc(NC(=O)c2ccc(NCCCN3CCC(C)CC3)c([N+](=O)[O-])c2)cc1F,"8.91 µM [falling, partial curve]",–
COc1ccccc1C(=O)Nc1ccc2c(c1)OCO2,"25.9 µM [falling, single point]",–
Cc1ccc(C(=O)NCCN2C3=NC[C@@H](Cc4ccccc4)N3C[C@H]2Cc2ccc(O)cc2)cc1Br,"35.5 µM [falling, single point]",–
CCSc1ccc2nnc(-c3ccc(F)cc3)n2n1,"14.6 µM [falling, single point]",–
COc1ccc2c(c1OC)C(=O)N1N=C(c3ccc(O)cc3)CC21 (configuration not stated),"5.8 µM [falling, partial curve]",–
COc1cccc(C(=O)NC(=O)Nc2cc(C)on2)c1,"10 µM [falling, partial curve, poor fit]",–
COc1cc(OC)c(OC)cc1/C=C/C(=O)c1ccc(NS(=O)(=O)c2ccc(C)cc2)cc1,"16.4 µM [falling, single point]","23.1 µM [falling, partial curve, poor fit]"
CCCCOc1ccc(/C(O)=C2/C(=O)C(=O)N(CCN(C)C)C2c2ccc(O)c(OC)c2)cc1 (configuration not stated),"14.1 µM [falling, partial curve, poor fit]",–
COc1ccccc1[C@]1(C)ON(c2ccccc2C(F)(F)F)C1=O,"13 µM [falling, single point]",–
Cc1ccc(S(=O)(=O)Nc2ccc(O)c3ccccc23)c(C)c1,"31.6 µM [falling, single point]",–
Cc1c(Nc2cc(N3CCOCC3)c3nonc3c2[N+](=O)[O-])c(=O)n(-c2ccccc2)n1C,"22.4 µM [rising, single point]",–
O=C1CCCN1CCCN=c1c([N+](=O)[O-])nn(-c2ccc(Cl)cc2)n1O,"3.55 µM [rising, full curve, poor fit]",–
